No constants are given. Whether binding was seen depends on the method and setting. Binding seen in cells or lysates may run through a third protein. Tags and fused reporters may be left off the sequences shown.
Molecular target: α-tubulin, endogenous (human (endogenous in MDA-MB-231))
Experiment: proximity ligation; Duolink PLA on methanol-fixed MDA-MB-231 cells stably expressing GFP fusions, anti-GFP and anti-α-tubulin; MAP1B siRNA in Fig. 6 B (proximity not affected)

binding: no binding
B1: Bet1-GFP, in MDA-MB-231 cells (MDA/Bet1-GFP) (protein, UniProt O15155 1-118)
chain: MRRAGLGEGVPPGNYGNYGYANSGYSACEEENERLTESLRSKVTAIKSLSIEIGHEVKTQNKLLAEMDSQFDSTTGFLGKTMGKLKILSRGSQTKLLCYMMLFSLFVFFIIYWIIKLR
